Reference: paper PMC9160049, “Cryo-EM structures of Gid12-bound GID E3 reveal steric blockade as a mechanism inhibiting substrate ubiquitylation” (Nature Communications, 2022)
No constants are given. Whether binding was seen depends on the method and setting. For some of these results: Binding seen in cells or lysates may run through a third protein. Some entries that bind do so weakly or less than the wild type. For some of these results: Sequences can lack the tags named with a protein.

Tests used:
[1] = target: T1, GST-Gid1 (N-terminal GST-tagged Gid1) (S. cerevisiae) (UniProt P53076); assay: pull-down; Hi5 insect cells co-infected with baculoviruses for all GID subunits, Gid12 and Moh1 or all but one; pulldown of GST-Gid1, Twin-Strep-Gid5 or Twin-Strep-Gid1 from lysate; 50 mM Tris-HCl pH 8.0, 200 mM NaCl, 5 mM DTT; SDS-PAGE, Coomassie
T1 sequence: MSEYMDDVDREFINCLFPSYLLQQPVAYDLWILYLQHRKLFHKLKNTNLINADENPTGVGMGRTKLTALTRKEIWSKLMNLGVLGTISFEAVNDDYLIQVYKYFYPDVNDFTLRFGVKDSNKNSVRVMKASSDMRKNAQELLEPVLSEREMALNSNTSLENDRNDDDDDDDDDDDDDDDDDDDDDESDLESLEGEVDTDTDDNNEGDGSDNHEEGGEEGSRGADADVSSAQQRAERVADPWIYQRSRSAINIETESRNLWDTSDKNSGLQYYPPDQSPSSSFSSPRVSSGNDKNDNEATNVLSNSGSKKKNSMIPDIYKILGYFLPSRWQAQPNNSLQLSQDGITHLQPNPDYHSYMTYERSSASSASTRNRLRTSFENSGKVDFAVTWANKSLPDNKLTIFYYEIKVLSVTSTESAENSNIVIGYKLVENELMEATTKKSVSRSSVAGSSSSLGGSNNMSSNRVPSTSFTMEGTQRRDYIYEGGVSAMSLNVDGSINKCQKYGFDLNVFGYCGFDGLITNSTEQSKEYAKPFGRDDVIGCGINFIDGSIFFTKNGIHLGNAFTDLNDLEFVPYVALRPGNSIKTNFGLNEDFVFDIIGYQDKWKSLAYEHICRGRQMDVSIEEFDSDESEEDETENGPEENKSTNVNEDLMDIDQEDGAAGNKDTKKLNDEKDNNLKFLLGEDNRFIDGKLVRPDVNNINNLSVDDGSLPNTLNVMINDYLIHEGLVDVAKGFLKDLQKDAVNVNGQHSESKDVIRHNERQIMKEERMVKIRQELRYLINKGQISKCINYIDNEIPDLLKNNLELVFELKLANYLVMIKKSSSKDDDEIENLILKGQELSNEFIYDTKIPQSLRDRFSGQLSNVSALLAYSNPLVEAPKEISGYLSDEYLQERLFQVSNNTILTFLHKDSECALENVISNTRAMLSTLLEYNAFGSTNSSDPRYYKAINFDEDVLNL

[2] = target: T2, Strep-Gid5 (N-terminal Twin-Strep-tagged Gid5) (S. cerevisiae) (UniProt P40547); assay: as above
T2 sequence: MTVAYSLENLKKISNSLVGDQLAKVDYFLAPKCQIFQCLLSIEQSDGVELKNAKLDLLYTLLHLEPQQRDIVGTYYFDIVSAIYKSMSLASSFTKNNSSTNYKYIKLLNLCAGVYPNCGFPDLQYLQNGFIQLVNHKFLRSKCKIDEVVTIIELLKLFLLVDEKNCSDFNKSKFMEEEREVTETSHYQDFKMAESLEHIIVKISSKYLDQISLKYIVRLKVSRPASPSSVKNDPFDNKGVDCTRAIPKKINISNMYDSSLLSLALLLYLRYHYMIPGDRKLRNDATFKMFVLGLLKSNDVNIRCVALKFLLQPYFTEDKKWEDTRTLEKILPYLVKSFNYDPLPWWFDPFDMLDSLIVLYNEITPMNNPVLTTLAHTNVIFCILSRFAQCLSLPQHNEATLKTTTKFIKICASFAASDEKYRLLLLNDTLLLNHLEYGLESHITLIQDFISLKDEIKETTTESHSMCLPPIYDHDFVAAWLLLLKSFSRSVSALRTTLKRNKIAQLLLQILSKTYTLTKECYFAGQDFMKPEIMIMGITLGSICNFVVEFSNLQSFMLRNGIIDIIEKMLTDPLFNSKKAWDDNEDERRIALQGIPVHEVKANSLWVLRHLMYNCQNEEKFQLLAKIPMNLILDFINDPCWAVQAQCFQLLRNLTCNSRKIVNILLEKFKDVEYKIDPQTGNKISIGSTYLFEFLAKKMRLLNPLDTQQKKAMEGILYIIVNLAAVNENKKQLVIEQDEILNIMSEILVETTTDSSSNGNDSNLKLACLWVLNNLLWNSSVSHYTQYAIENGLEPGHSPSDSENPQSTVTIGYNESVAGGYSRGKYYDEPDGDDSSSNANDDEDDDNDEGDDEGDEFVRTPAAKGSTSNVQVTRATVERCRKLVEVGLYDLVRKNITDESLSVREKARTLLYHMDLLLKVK

[3] = target: T3, Gid4 (recombinant, untagged, co-expressed) (S. cerevisiae) (UniProt P38263); assay: cryo-EM structure; maps of Gid12-GID^SR4 (9.8 Å), Gid12-Chelator-GID^SR4 (19.4 Å) and Gid12-Cage-GID^SR4 (20.6 Å), complexes co-expressed in Hi5 cells and purified; docked with Gid12-SRS and prior structures; both purified
T3 sequence: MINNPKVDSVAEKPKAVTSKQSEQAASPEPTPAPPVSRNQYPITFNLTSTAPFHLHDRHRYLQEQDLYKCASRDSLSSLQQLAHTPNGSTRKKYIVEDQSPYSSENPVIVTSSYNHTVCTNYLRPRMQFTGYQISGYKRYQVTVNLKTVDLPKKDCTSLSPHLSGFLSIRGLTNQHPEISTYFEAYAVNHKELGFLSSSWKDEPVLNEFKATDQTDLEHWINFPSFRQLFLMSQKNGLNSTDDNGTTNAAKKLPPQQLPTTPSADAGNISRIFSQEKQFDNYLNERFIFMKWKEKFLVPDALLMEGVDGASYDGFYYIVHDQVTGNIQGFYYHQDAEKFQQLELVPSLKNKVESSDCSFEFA

[4] = target: T3, Gid4 (recombinant, untagged, co-expressed) (S. cerevisiae); assay: cryo-EM structure; Gid12-SRS (Gid12-Gid4-Gid5-Gid1-Gid8) co-expressed in Hi5 cells and purified as a complex; 3.3 Å; 25 mM MES pH 6.5, 150 mM NaCl, 1 mM DTT; both purified
[5] = target: T4, Gid5 (recombinant, untagged, co-expressed) (S. cerevisiae) (UniProt P40547); assay: as above
T4 sequence: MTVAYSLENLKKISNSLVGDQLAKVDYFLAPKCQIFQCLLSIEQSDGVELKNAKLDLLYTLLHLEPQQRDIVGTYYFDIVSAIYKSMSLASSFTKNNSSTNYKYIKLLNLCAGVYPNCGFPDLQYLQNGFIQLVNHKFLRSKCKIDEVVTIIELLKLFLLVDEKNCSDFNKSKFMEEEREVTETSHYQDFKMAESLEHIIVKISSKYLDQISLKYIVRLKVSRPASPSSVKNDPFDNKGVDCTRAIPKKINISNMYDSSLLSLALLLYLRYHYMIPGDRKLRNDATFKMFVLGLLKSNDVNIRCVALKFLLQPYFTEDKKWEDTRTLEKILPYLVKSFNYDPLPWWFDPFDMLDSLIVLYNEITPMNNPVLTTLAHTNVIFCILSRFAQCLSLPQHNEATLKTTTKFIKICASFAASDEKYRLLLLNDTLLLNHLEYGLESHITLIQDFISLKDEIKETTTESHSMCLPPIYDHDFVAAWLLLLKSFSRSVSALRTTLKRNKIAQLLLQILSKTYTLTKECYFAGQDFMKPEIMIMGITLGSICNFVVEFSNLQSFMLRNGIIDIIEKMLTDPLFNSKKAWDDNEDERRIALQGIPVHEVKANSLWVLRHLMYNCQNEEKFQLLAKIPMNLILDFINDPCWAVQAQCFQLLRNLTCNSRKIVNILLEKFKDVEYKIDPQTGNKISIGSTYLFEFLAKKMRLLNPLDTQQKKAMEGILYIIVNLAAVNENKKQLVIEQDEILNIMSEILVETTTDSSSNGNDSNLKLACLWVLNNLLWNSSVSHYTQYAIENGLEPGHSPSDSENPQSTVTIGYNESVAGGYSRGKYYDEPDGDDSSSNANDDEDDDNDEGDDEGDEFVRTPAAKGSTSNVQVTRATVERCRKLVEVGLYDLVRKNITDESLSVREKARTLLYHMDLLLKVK

[6] = target: T5, 2×Strep-Gid4 (S. cerevisiae) (UniProt P38263); assay: pull-down; 2×Strep-Gid4 and Gid12 co-expressed in Hi5 cells; subcomplex purified by Strep-Tactin affinity chromatography and SEC; 25 mM HEPES pH 7.5, 150 mM NaCl, 1 mM DTT
T5 sequence: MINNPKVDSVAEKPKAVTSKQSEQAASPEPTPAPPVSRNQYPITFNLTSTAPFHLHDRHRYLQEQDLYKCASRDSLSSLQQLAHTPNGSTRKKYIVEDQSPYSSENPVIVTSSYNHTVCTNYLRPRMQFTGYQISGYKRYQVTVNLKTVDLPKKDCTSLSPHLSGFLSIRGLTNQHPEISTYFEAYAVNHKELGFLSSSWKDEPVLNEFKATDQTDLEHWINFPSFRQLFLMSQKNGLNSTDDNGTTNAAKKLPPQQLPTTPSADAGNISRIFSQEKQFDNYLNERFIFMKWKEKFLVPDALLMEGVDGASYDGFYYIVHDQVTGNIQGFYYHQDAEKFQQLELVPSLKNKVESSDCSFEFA

[7] = target: T6, 2×Strep-Gid1 (Twin-Strep tag fused at the N-terminus of Gid1) (S. cerevisiae) (UniProt P53076); assay: pull-down; Hi5 insect cells co-expressing combinations of 2×Strep-Gid1, Gid8, Gid5, Gid4 and Gid10 (with Gid12); Strep-Tactin pulldown on Gid1, 4 °C; 50 mM Tris/HCl pH 7.5, 200 mM NaCl, 5 mM DTT; SDS-PAGE
T6 sequence: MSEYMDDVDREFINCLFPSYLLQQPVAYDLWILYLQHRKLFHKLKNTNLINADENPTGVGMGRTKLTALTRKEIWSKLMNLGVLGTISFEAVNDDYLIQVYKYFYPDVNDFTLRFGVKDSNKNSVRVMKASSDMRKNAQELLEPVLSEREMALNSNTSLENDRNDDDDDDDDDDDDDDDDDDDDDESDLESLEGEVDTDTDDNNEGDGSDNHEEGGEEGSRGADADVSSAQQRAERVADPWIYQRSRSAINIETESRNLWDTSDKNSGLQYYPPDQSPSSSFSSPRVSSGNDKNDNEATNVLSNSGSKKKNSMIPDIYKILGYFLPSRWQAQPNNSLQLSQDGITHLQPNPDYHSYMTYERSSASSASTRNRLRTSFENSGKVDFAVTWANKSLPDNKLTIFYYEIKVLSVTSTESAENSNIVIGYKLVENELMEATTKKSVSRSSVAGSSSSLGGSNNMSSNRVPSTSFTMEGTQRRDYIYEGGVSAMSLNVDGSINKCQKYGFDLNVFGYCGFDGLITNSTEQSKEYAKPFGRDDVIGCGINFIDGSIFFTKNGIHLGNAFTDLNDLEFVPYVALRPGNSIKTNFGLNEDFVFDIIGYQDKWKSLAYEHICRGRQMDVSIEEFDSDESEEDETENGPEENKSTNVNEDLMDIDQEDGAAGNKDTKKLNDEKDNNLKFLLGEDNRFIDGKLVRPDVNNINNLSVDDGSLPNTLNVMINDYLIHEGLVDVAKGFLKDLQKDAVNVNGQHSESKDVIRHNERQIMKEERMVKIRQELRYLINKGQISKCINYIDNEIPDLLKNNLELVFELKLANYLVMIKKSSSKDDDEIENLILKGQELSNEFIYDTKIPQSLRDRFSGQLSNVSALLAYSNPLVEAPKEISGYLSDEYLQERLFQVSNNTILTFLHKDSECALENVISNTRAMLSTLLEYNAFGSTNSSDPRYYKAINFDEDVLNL

Measured: binding

B1: Gid12-9×cMYC (natural protein, S. cerevisiae (endogenous in BY4741), UniProt Q12027 1-708, looked up)
chain: MATGRIQFAVSTPCNTKGKPSGYRLFEFKNDRLALVPSERGCTKVDVNANIQAFCYLRPNGRDTSISPDATHILDSCDYMVLAKSNGFIEIISNYQYKIKNGLRLAPSYILRCTPEDFESNFFSDYMIAGLEYSQGLLYCCMCSGRIYVFVMNLPTDYIQYKNMYNPMFPDCFFKVHHDNNTTHSSEEEKLFEGSTRYTGRSCSKHICYFLLPIEPSHLRSSPVVSSFCNMYQGLPIYRPSMYLHIERGISTFHINPLDRFCFMTVSPRSPLFIRKIILPLTYVTFLSTFISLKNSIQGDTCGEILSWDNVAQQNGFGSLFSWISNKFTFDTDIINSTIWDDIVKYSGTGMLDSGIVWKQRQGHAKDDIYELFHTQDMLGSSRRNSSFSTASSEPRPLSRRRRESFQALTRDAFRERMDVPCSTKWELDSFIRGLRRNTFMVDFEIVEKISHRNGNDGVNEDDNTTDESDETMTSFLTDNYKKMDIVCIDHFVTLSAFRPRYYDEPIIKIDSLSNKNGSENGTNEEEWAESQMKVDGQVIDDETAQFKQALGNLCSFKKLFMLDDSLCFILDTHGVLLINRFEIKNTKNLLRNSKDTIRIIPHDFGLINDTIVIINDIDVGTDNVCALTFHLVVTSMAGEITVLKGEFFKNCRLGRIKLCDSLKLNRKDRFVDKLALIDYDGLNAQKRRLDYDEKDLYTFIVKKVKRD
notes: Gid12 (Ipf1, YDL176W), S. cerevisiae, tagged at the endogenous locus; The strain name is written GID12-9×cMYC; source: endogenous locus, BY4741 GID12-9×cMYC::kanMX4, 3×HA-GID4 yeast, in lysate
binds: all assays above
